Measurements reported in publication doi:10.1101/151316.
These are yes or no findings as the source states them, for the method shown.

Amino acid sequences for entries named in this document (tags omitted). A change or cut given only in a name is not applied to a line headed by its entry.
UniProt P0C050, whole entry, looked up, stated change not applied: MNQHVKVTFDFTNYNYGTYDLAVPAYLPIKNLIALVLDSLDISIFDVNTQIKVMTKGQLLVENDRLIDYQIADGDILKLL

Target: EsaB (Staphylococcus aureus) (UniProt P0C050)
Test: SEC

EsaB (from UniProt P0C050 1-80)
binding: no binding
